Laboratory results as given in article PMC6572064, “Discovery of 2-(1-(3-(4-Chloroxyphenyl)-3-oxo- propyl)pyrrolidine-3-yl)-1H-benzo[d]imidazole-4-carboxamide: A Potent Poly(ADP-ribose) Polymerase (PARP) Inhibitor for Treatment of Cancer” (Molecules, 2019).

System: CAPAN-1 (a BRCA-2-mutated pancreatic cancer cell line)
Assay: Cell proliferation assay, three-day, CellTiter-Glo, CAPAN-1
Type: cell-based
Conditions: for Inh % 1: replicate 1; for Inh % 2: replicate 2
Protocol: A three-day assay was conducted. A cell suspension was prepared. Cell density was counted by an automated cell counter and then diluted to the required density, according to seeding density. 50 μL cells were seeded into 384-well plate in growth medium according to the plate map. The cells were incubated at 37 °C, 5% CO2 overnight.
200× compound solution in DMSO was prepared and diluted with growth medium to 26× final concentration by addition of 26 μL 200× compounds to 174 μL growth medium. Then 2 μL of diluted compound solution was added to cells and the cell was incubated at 37 °C, 5% CO2 for 72 h.
The assay plate was equilibrated to room temperature prior to measurement. 15 μL of CellTiter-Glo Reagent was added into each well and the contents were mixed for 2 min on an orbital shaker to induce cell lysis. The cells were incubated at room temperature for 60 min to stabilize luminescent signal. Luminescence was recorded on the Envision system.

CN[C@@H]1C[C@H]2O[C@@](C)([C@@H]1OC)n1c3ccccc3c3c4c(c5c6ccccc6n2c5c31)C(=O)NC4 [STS, reference compound]
Inh % 1 (CAPAN-1, Conc. 0.000254 uM): 10.9% | Inh % 2 (CAPAN-1, Conc. 0.000254 uM): 3.2% | Inh % 1 (CAPAN-1, Conc. 0.000762 uM): 12.8% | Inh % 2 (CAPAN-1, Conc. 0.000762 uM): 15.5% | Inh % 2 (CAPAN-1, Conc. 0.00229 uM): 26.4% | Inh % 1 (CAPAN-1, Conc. 0.00686 uM): 27.0% | Inh % 2 (CAPAN-1, Conc. 0.00686 uM): 38.5% | Inh % 1 (CAPAN-1, Conc. 0.02 uM): 36.6% | Inh % 2 (CAPAN-1, Conc. 0.02 uM): 34.5% | Inh % 1 (CAPAN-1, Conc. 0.06 uM): 54.1% | Inh % 2 (CAPAN-1, Conc. 0.06 uM): 48.7% | Inh % 1 (CAPAN-1, Conc. 0.19 uM): 73.5% | Inh % 2 (CAPAN-1, Conc. 0.19 uM): 73.7% | Inh % 1 (CAPAN-1, Conc. 0.56 uM): 90.1% | Inh % 2 (CAPAN-1, Conc. 0.56 uM): 89.3% | Inh % 1 (CAPAN-1, Conc. 1.67 uM): 93.3% | Inh % 2 (CAPAN-1, Conc. 1.67 uM): 93.5% | Inh % 1 (CAPAN-1, Conc. 5.00 uM): 95.9% | Inh % 2 (CAPAN-1, Conc. 5.00 uM): 96.2% | LogIC50 (CAPAN-1, curve fit, plate 1): -1.189 Log (uM)
